At least one compound was matched to its structure with a doubt left.
Assays:
[1] = DLS size and PDI of drug nanoparticles with dye stabilizers (Study 1); assay type: physicochemical
Protocol: For comparison with other stabilizers, the […] was replaced with the following excipients: Pluronic F-127, sodium lauryl sulfate (SDS), carboxymethyl cellulose (CMC), α-cyclodextrin (αCD), β-cyclodextrin (βCD), βCD-SO3, and human serum albumin (HSA). All compounds were dissolved as 10 mg/ml in DDW. Further comparison of […] with IR783/IR820 based nanoparticles was also performed in DDW. The solutions were centrifuged (30,000 g, 15 min, room temperature) and the pellet was resuspended in 1 ml of DDW. In the automation process, using the Andrew Alliance pipetting robot (Waters Corp, MA), the nanoparticles were purified using a PD-10 desalting column (Cytiva, Marlborough, MA) and 1.7 ml of eluent was collected after 2.5 ml void volume (defined by the vendor). Characterization of nanoparticles. Dynamic light scattering (DLS) measurements were conducted using a Zetasizer Nano ZS (Malvern Panalytical, Malvern, UK).

HCT 116 cells = assay: Cell viability assay in 2D (CTG); assay type: cell-based, human; conditions: HCT116, 4 days of treatment; trametinib vs sorafenib, P<0.05
KPL cells = conditions: KPL lung metastases; IP
Protocol: KRAS driven lung tumor studies. Six-weeks-old female C57BL/6J mice strain were purchased from Envigo RMS. Inducing tumors in the lung was done by injecting 10^5 KPL cells suspended in 200 μl of PBS intravenously (IV) via the tail vein. […] For efficacy studies, treatments were administered biweekly for ten weeks. For safety studies, immunohistochemistry (H&E) was done on treated mice. Animals were euthanized using CO2 inhalation. Mice were housed in air-filtered laminar flow cabinets with a 12-hr light/dark cycle and food and water ad libitum.

HCT 116 spheroids = assay: Cell viability assay in 3D (CTG 3D); assay type: cell-based, human; conditions: HCT116 spheroids, 5 days of treatment; trametinib vs sorafenib, P<0.05

Row | SMILES | nanoparticle formation with IR783 ([1]; stabilizer IR783) | nanoparticle formation with R595 ([1]; stabilizer R595) | efficacy in 2D cell culture (CTG) (HCT 116 cells) | anti-cancer activity (KPL cells) | efficacy in 3D cell culture (CTG 3D) (HCT 116 spheroids)
1 | CC(O)(CS(=O)(=O)c1ccc(F)cc1)C(=O)Nc1ccc(C#N)c(C(F)(F)F)c1 (centres unmarked) [bicalutamide] | failed to form nanoparticles | formed stable nanoparticles | – | – | –
2 | CC(=O)Nc1cccc(-n2c(=O)n(C3CC3)c(=O)c3c(Nc4ccc(I)cc4F)n(C)c(=O)c(C)c32)c1 [trametinib] | – | – | much more efficacious in killing this cell line | significant and comparable anti-cancer activity | much more efficacious in killing this cell line

From US20260060936A1, “INDOLIUM-BASED STABILIZERS OF HYDROPHOBIC DRUGS” (TECHNION RESEARCH & DEVELOPMENT FOUNDATION LTD., priority 2022, published 2026)
